Article PMC8844045, “Dynamic FMR1 granule phase switch instructed by m6A modification contributes to maternal RNA decay”
Results are given in words; binding and its absence hold for the method and conditions named. For some assays here: In cells and extracts the contact can be indirect. Some entries that bind do so weakly or less than the wild type.

Chains of the proteins cited; added tags and fusions are not shown.
UniProt Q9NFU0: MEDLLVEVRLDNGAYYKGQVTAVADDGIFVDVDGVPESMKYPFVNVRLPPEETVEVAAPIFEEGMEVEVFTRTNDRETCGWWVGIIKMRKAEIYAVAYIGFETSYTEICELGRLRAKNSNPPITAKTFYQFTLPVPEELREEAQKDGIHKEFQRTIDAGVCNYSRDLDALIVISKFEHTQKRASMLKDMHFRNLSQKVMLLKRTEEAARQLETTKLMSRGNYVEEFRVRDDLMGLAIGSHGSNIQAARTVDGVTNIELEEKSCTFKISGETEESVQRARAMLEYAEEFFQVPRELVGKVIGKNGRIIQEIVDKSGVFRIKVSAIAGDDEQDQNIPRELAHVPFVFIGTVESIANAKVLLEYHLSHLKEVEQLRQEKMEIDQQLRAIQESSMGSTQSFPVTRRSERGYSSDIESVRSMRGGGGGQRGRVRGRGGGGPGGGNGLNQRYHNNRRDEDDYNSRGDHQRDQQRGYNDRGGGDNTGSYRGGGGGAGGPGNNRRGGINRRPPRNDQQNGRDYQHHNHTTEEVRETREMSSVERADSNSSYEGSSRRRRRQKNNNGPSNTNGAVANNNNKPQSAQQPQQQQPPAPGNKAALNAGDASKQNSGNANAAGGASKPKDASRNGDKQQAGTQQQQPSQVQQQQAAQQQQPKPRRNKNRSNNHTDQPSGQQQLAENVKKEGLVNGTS
UniProt P21187: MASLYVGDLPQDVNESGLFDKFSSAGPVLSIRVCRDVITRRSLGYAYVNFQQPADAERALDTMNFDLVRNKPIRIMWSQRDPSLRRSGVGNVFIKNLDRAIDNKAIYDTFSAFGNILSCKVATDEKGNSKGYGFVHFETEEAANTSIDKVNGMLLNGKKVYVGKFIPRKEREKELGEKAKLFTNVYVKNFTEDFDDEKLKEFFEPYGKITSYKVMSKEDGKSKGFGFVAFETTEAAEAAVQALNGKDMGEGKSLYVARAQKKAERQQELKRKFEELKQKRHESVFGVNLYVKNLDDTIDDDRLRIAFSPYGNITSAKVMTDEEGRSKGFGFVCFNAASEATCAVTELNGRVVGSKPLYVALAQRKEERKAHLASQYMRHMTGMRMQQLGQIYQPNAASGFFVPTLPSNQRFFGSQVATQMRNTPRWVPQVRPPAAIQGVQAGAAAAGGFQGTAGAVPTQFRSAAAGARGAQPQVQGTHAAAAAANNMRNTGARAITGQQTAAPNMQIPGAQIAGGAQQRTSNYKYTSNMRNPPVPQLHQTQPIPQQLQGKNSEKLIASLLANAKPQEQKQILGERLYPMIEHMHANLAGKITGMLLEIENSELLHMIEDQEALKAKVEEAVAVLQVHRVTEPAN

Assays:
[1] = molecular target: Drosophila Fragile X mental-retardation protein (FMR1) (Drosophila (endogenous in embryos)) (UniProt Q9NFU0); test: co-IP; total lysates of 2–4-h embryos (wild type; also mettl3–mettl14 double maternal mutants, where the association was markedly reduced) immunoprecipitated with anti-Drosophila FMR1 antibody or IgG, protein A/G agarose, 4 °C; western blot for pAbp
[2] = molecular target: Drosophila Fragile X mental-retardation protein (FMR1) (Drosophila (endogenous in embryos)) (UniProt Q9NFU0); test: SDD-AGE (semi-denaturing detergent agarose gel electrophoresis); crude extracts of wild-type embryos at 0–1, 2–4 and 5–6-h stages; 1.5% agarose gel with 0.1% SDS, immunoblot for FMR1; RNase A treatment of the 2–4-h lysate markedly reduced the high-molecular-weight signal

| Substance | binding [1] | binding [2] |
| --- | --- | --- |
| poly(A)-binding protein (pAbp) (from UniProt P21187 1-634) | binds | – |
| Drosophila Fragile X mental-retardation protein (FMR1) (from UniProt Q9NFU0 1-684) | – | binds |
